Data published in publication PMC5835976 (EJNMMI Radiopharmacy and Chemistry, 2017).

Test: general procedure: Fmoc solid-phase peptide synthesis; 2-Cl-trityl resin (Iris Biotech GmbH); HBTU/HOBt/DIPEA
Details: for final HPLC purity: UV detection at 220 nm

Substance | isolated yield (whole synthesis) | final HPLC purity (whole synthesis) | final HPLC purity (conjugation step)
PEPTIDE1{D.A.H.S.F.S}$$$$V2.0 | 29% | 98% | –
PEPTIDE1{L.I.K.K.P.F}$$$$V2.0 | 32% | 97% | –
PEPTIDE1{P.G.D.L.S.R}$$$$V2.0 | 31% | 98% | –
PEPTIDE1{[NODAGA].[bAla].P.G.D.L.S.R}$$$$V2.0 | 28% | – | >95%

HELM strings list residues between dots; [ac] is acetyl, [am] amide, other brackets name non-standard units.
